# Where two headings read alike, the source gives them in different places. Not every detail of the peptide structures is certain; ends, links or a residue may be inferred. Square brackets hold non-standard residues; d marks the D form. Peptide text beside a SMILES is read from it.
# The chains behind the UniProt entries cited, without tags or fusion partners. Residues count along the entry.
# UniProt P05067, 672-713 limits assumed: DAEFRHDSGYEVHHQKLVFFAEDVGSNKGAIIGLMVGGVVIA
# Tests used:
# Aβ(1-42) oligomers = target: T1, Aβ(1-42) oligomers (Homo sapiens, UniProt P05067); assay: SPR single-cycle kinetics on immobilized Aβ(1-42) oligomers; settings: oligomers by density gradient centrifugation, 1356 RU immobilized, heterogeneous binding model, two sites
# T1 construct: oligomers and fibrils being composed of a 1:10 ratio of biotinylated Aβ(1-42) to non-biotinylated Aβ(1-42)
# Protocol: (§1) The results can be obtained by surface plasmon resonance or by biolayer interferometry. In the case of surface plasmon resonance, regeneration steps between individual analyte injections are circumvented by carrying out the interaction studies using the “single-cycle kinetics” measurement method. Thus, advantageously, different analyte concentrations are injected directly one after the other.
# (§2) In order to ensure a homogeneous sample preparation, monomers and oligomers were separated by means of size exclusion chromatography (SEC), and fibrils were separated from other forms by means of density gradient centrifugation. The immobilization on streptavidin-loaded SPR sensor surfaces took place by using biotinylated Aβ(1-42), oligomers and fibrils being composed of a 1:10 ratio of biotinylated Aβ(1-42) to non-biotinylated Aβ(1-42).
# (§3) The lyophilized samples of N-terminally biotinylated Aβ(1-42) and non-biotinylated Aβ(1-42) were each dissolved separately from one another in 100% hexafluoroisopropanol (HIFP) and incubated overnight at room temperature. The volumes required for a 1:10 ratio were then combined and the HFIP was evaporated off using a concentrator.
# (§4) For the preparation of monomeric and oligomeric Aβ(1-42), the previously obtained pellet was taken up in the size exclusion chromatography buffer (50 mM sodium phosphate buffer, 150 mM NaCl, 0.6% Tween 20, pH 7.4) and briefly centrifuged for 30 seconds at 15500 g in order to sediment insoluble material.
# (§5) The supernatant after the centrifugation step at the end of the preparation of monomeric and oligomeric Aβ(1-42) was then applied directly to a Superdex 75 10/300 GL (GE Healthcare) column for chromatographic separation. The flow rate during the elution with size exclusion chromatography buffer was 0.8 ml/min. Monomers eluted at ˜14 ml, whereas oligomers eluted at ˜8 ml.
# (§6) The density gradient was prepared by subsequently layering over the density gradient solution (iodixanol diluted in 10 mM sodium phosphate buffer pH 7.4) in concentrations of 50% (260 μl), 40% (260 μl), 30% (260 μl), 20% (260 μl), 10% (260 μl) and 5% (100 μl) (v/v). The samples were then pipetted onto the density gradient and centrifugation was carried out for 3 hours at 4° C. and 259000 g. A total of 14 fractions, each of 140 μl, was then removed from the density gradient from top to bottom. Monomers are found in the first fraction, oligomers are found in fractions 5 and 6, and fibrils are found typically in fractions 11-13.
# (§7) The monomers are biotinylated C-terminally, unlike the oligomers and fibrils (N-terminally). The response units (Y-axis) were plotted against the time in seconds (X-axis), wherein the black curves represent the double-referenced experimental data and the gray superposed curves represent the fits. For characterizing the scFv-IC16, therefore, measurements using biotinylated Aβ(1-42) are possible; C-terminally biotinylated Aβ(1-42) was used here. For fitting to monomers, a 1:1 Langmuir binding model was used and oligomers and fibrils were fitted to a heterogeneous binding model which takes account of two different binding sites on the sensor surface. It can clearly be seen that the fits coincide very well with the experimental data. This is direct evidence of the successful immobilization of the various forms and the respectively homogeneous surface.
# (§8) The index a1 and d1 refer respectively to the association and dissociation rate of the antibody fragment scFv-IC16 on the respective exposed epitope of the conformer. […]
# Aβ(1-42) monomers = target: T2, Aβ(1-42) monomers (Homo sapiens, UniProt P05067); assay: SPR single-cycle kinetics on immobilized Aβ(1-42) monomers; settings: monomers by density gradient centrifugation, 1423 RU immobilized, heterogeneous binding model, two sites
# T2 construct: sensor surfaces containing immobilized Aβ(1-42) monomers, oligomers and fibrils
# Protocol: as §1, §2, §3, §4, §5, §6, §7, §8
# Aβ(1-42) fibrils = target: T3, Aβ(1-42) fibrils (Homo sapiens, UniProt P05067); assay: SPR single-cycle kinetics on immobilized Aβ(1-42) fibrils; settings: fibrils by density gradient centrifugation, 1324 RU immobilized, binding model with three binding sites
# T3 construct: oligomers and fibrils being composed of a 1:10 ratio of biotinylated Aβ(1-42) to non-biotinylated Aβ(1-42)
# Protocol: as §1, §2, §3
# For the preparation of fibrillar Aβ(1-42), the pellets obtained after the evaporation were dissolved in 10 mM sodium phosphate buffer pH 7.4 and incubated for 24 hours at 25° C. and at 600 rpm.
# as §6, §7
# The index a1 and d1 refer respectively to the association and dissociation rate of the antibody fragment scFv-IC16 on the respective exposed epitope of the conformer. The index a2 and d2, on the other hand, refer respectively to the association and dissociation rate of the antibody fragment scFv-IC16 on discontinuous epitopes of the respective conformer. Analogously, the indices D1 and D2 refer to the dissociation constants on the continuous and discontinuous epitope.
# The D-enantiomeric peptide D7 was identified by a mirror image […] selection and analyzed using the method described above with regard to the binding properties, by way of example as a substance to be tested. In a manner differing from the measurement data in FIG. 3, in this case, all the different Aβ(1-42) conformers (monomers, oligomers and fibrils) were prepared by means of density gradient centrifugation and immobilized in various quantities on the sensor surface. In the case of the monomers, 1423 RU were immobilized, in the case of the oligomers 1356 RU, and in the case of the fibrils 1324 RU. […]
# [1] = sub-reaction 1, read-out: KD1 dissociation constant
# [2] = sub-reaction 2, read-out: kD2 dissociation constant
compound,measurement,setting,value
"CSCC[C@@H](NC(=O)[C@@H](Cc1c[nH]cn1)NC(=O)[C@@H](Cc1ccc(O)cc1)NC(=O)[C@H](NC(=O)[C@@H](Cc1ccc(O)cc1)NC(=O)[C@@H](Cc1ccc(O)cc1)NC(=O)[C@@H](CCC(=O)O)NC(=O)[C@@H](Cc1ccccc1)NC(=O)[C@@H](CCCNC(=N)N)NC(=O)[C@H](NC(=O)[C@H](N)Cc1c[nH]cn1)[C@H](C)O)C(C)C)C(=O)N[C@H](CO)C(=O)O [D7, htrfeyyvyhms] (H-[dH][dT][dR][dF][dE][dY][dY][dV][dY][dH][dM][dS]-OH; N-terminus and C-terminus assumed)",X^2 of fit,Aβ(1-42) oligomers,0.5
same,Rmax1 maximum achievable measurement signal,Aβ(1-42) oligomers; sub-reaction 1,19.24 RU
same,Kd,Aβ(1-42) oligomers; [1],88.8 nM
same,Rmax2 maximum achievable measurement signal,Aβ(1-42) oligomers; sub-reaction 2,14.74 RU
same,Kd,Aβ(1-42) oligomers; [2],231 nM
same,X^2 of fit,Aβ(1-42) monomers,1.32
same,Rmax1 maximum achievable measurement signal,Aβ(1-42) monomers; sub-reaction 1,37.35 RU
same,Kd,Aβ(1-42) monomers; [1],151 nM
same,Rmax2 maximum achievable measurement signal,Aβ(1-42) monomers; sub-reaction 2,27.5 RU
same,Kd,Aβ(1-42) monomers; [2],92.6 nM
same,X^2 of fit,Aβ(1-42) fibrils,0.62
same,Rmax1 maximum achievable measurement signal,Aβ(1-42) fibrils; sub-reaction 1,57.27 RU
same,Kd,Aβ(1-42) fibrils; [1],14400 nM
same,Rmax2 maximum achievable measurement signal,Aβ(1-42) fibrils; sub-reaction 2,45.94 RU
same,Kd,Aβ(1-42) fibrils; [2],147 nM
same,Rmax3 maximum achievable measurement signal,Aβ(1-42) fibrils; sub-reaction 3,25.79 RU
same,Kd,"Aβ(1-42) fibrils; sub-reaction 3, read-out: KD3 dissociation constant",388 nM

# Source: patent US10746747B2, “Method for quantitative characterization of substances with regard to their properties of binding to amyloid-β (Aβ) conformers” (FORSCHUNGSZENTRUM JUELICH GMBH, priority 2013, dated 2020)
